# Measurements: the supplement of paper PMC12889115
# The other results are listed elsewhere or left out. Values are raw readings; no control value is given beside them.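 First-pass screen: polymyxin B was added at a level that permeabilizes the Salmonella outer membrane while sparing the inner membrane. DMSO wells, with and without polymyxin B, defined maximum growth. Because plates differed from one another, each plate's data were ranked separately and the compounds with the lowest OD600 were carried forward as hits.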
# System: Salmonella enterica serovar Typhimurium SL1344
# Assay: bacterial growth OD600 after 18 h with compound and polymyxin B; higher = more bacterial growth (less inhibition)
# Conditions: 50 µM, Mueller-Hinton broth
SMILES,bacterial growth OD600 (polymyxin B 0.75 µg/mL),bacterial growth OD600 (polymyxin B 1 µg/mL)
O=C(Nc1ccnn1C1CCN(C(=O)CCc2c[nH]c3ccccc23)CC1)C1CC1,0.863,
O=C(c1csc2nc(-c3ccccc3)cn12)N1CCOCC1,,1.15
COc1cccc(C2(CC(=O)N(C)Cc3nc4ccccc4s3)CC(=O)N(C3CCCC3)C2=O)c1 (configuration not stated),0,
COc1ccc(CCN2CC(NC(=O)c3cccnc3)CC2=O)cc1 (configuration not stated),,0.891
O=C(NCC1CC(Cc2ccc(F)cc2)=NO1)c1n[nH]c2c1CCC2 (configuration not stated),0.771,
COC(=O)c1ccc(CN2CCC(C(Cc3ccccc3Cl)N(C)C(=O)c3ccco3)CC2)cc1 (configuration not stated),0.006,
COCc1ccc(CNCc2cccnc2N2CCN(c3ccccn3)CC2)o1,,0.845
COc1ccccc1OCc1cc(C(=O)N2CCCN(c3ncccn3)CC2)n[nH]1,,0.948
COC(=O)CN(C)C(=O)c1coc(COc2ccccc2)n1,0.784,
CCOC(=O)C1(Cc2cccc(F)c2)CCN(Cc2ccc(OC)c(O)c2)CC1,,0.87
O=C(NCc1cccnc1Oc1ccccc1)c1ccncc1,0.831,
O=C(NCC1CCC2(CCN(Cc3ccc(-c4ccc(Cl)cc4)o3)CC2)O1)C1CCOCC1 (configuration not stated),0.004,
CCOc1ccccc1CN1CCN(Cc2cn(CC)nc2C)CC1CCO (configuration not stated),,0.834
COCCN(C(=O)c1ccc(OC2CCN(S(=O)(=O)N(C)C)CC2)cc1)C(C)C,,1
OC1CCN([C@@H]2CCN(Cc3c[nH]nc3-c3ccc(Cl)cc3)C[C@H]2O)CC1,,0.457
O=C(NCC1(O)CCCCC1)c1csc2nc(-c3ccccc3)cn12,,1.03

SMILES,bacterial growth OD600 (polymyxin B 0.75 µg/mL),bacterial growth OD600 (polymyxin B 1 µg/mL)
CC(C)c1ccc(NC2CCCN(C(=O)c3ccc(N4CC(=O)NC4=O)cc3)C2)cc1 (configuration not stated),,1.01
COc1cc(CN2CCN(Cc3ccc(F)c(F)c3)CC2CCO)cc(OC)c1 (configuration not stated),,0.843
Fc1cccc(-c2cnnc(N3CCCC3c3nc4cc(F)ccc4[nH]3)n2)c1 (configuration not stated),0.593,
CC(C)N1C[C@H]2OC(=O)N(CCc3cccc(Cl)c3)[C@H]2C1,,0.869
Cc1ccccc1CCN1CCC(CN(C(=O)C2CCOCC2)C2CCCC2)CC1,,0.828
Cc1cnc(C)c(-c2ccc3c(c2)CC(CNC(=O)Cc2cccc(C(F)(F)F)c2)O3)n1 (configuration not stated),0.88,
CN1CCN(C(=O)c2cc(COc3cncc(Cl)c3)on2)CC1c1ccccc1 (configuration not stated),,0.815
COc1ccc(CN2CCN(Cc3nc(C(C)C)cs3)CC2CCO)c(C)c1C (configuration not stated),,0.937
Cc1ccc(Oc2ncccc2CNC(=O)c2ccc(C)nc2)cn1,,1.04
Cc1ccccc1CN1C[C@@H]2C[C@@H](c3cc4ccccc4o3)N3CCC[C@@]23C1=O,,0.011
COCCCN1C(=O)CC(CC(=O)N2CCN(c3ccccc3)CC2)(c2ccccc2OC)C1=O (configuration not stated),0.739,
CSc1ccccc1C(=O)N1CCCC(Nc2ccc(F)cc2)C1 (configuration not stated),,0.845
CC(C)CC(=O)Nc1ccnn1C1CCN(Cc2ccc(OCCO)cc2)CC1,,1.12
CO[C@H]1[C@H](NC(=O)COc2ccccc2)c2ccccc2C12CCN(C(=O)Cn1ccc(C)n1)CC2,0.839,
O=C(NC1CC1)C1CCCN(C2CCN(Cc3ccsc3)CC2)C1 (configuration not stated),0.793,
Cc1oc(-c2ccc(NC(=O)Cc3ccccc3)cc2)nc1CNC(=O)c1ccccc1Cl,0.838,

# Quoted from the listing.
# `O=C(Nc1ccnn1C1CCN(C(=O)CCc2c[nH]c3ccccc23)CC1)C1CC1` – bacterial growth OD600 (polymyxin B 0.75 µg/mL): 0.863
# `COc1ccc(CN2CCN(Cc3nc(C(C)C)cs3)CC2CCO)c(C)c1C` (configuration not stated) – bacterial growth OD600 (polymyxin B 1 µg/mL): 0.937
